Reference: paper PMC7862700
The entries are a selection whose mix differs from that of the whole data set. At the low end of the ranking, values are background and their order means little.

Sequences of proteins named here, by UniProt entry; tags and fusion partners are left off. A change or cut given only in a name is not applied to a line headed by its entry.
UniProt O43186: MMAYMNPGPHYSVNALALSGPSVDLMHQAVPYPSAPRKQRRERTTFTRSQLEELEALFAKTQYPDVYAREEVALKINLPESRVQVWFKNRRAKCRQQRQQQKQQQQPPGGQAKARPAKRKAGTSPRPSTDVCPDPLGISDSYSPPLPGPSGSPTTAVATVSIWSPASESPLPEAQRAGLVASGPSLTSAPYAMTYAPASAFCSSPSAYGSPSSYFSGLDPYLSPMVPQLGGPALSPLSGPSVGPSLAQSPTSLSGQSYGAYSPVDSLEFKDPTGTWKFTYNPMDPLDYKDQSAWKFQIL

Key:
Assay in all cases: DAPPL (digital affinity profiling via proximity ligation, sequencing)
Settings in all cases: 10 mM Tris-HCl pH 7.5, 50 mM NaCl, 1 mM DTT, 4% glycerol, room temperature, 30 min; GST-TFs on glutathione beads, 16-mer random dsDNA library, 0.1% …; high values mean tight binding; double strand, one strand shown; scale: fold enrichment (6-mer frequency, TF over GST control)
FEV = biological target: T1, FEV (UniProt Q99581)
T1 sequence: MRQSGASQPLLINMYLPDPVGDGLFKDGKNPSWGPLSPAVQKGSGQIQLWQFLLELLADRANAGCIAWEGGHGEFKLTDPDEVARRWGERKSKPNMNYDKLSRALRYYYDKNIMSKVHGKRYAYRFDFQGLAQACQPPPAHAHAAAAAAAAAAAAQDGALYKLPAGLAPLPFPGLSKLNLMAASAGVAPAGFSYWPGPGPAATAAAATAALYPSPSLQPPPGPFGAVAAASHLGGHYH

CRX = CRX (UniProt O43186)
ELF5 = biological target: T2, ELF5 (UniProt Q9UKW6-2)
T2 sequence: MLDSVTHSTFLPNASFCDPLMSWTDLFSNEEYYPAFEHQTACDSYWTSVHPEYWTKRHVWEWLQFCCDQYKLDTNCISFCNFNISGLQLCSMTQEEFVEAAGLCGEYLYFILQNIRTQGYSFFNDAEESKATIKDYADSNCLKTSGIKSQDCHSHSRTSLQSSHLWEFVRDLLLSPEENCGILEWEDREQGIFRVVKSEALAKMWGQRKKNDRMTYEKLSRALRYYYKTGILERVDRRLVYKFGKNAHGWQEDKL

Sequence | binding signal (FEV) | binding signal (CRX) | binding signal (ELF5)
CGCATA | 0.732 | 0.693 | 0.732
AGCGTG | 0.338 | 0.32 | 0.356
AGGAGG | 0.227 | 0.192 | 0.248
GTAGAC | 0.807 | 0.56 | 0.755
AAGTGA | 0.643 | 0.556 | 0.669
CGGACG | 0.499 | 0.276 | 0.492
CGGCGT | 0.854 | 0.642 | 0.776
AAAGTG | 0.857 | 0.881 | 0.913
CGTGCA | 0.647 | 0.51 | 0.642
TGAGAG | 0.555 | 0.538 | 0.574
AGACGT | 0.466 | 0.405 | 0.441
GGAGAT | 0.29 | 0.394 | 0.288
CGGGGT | 0.551 | 0.488 | 0.602
TGAGTA | 0.416 | 0.461 | 0.394
CTAGAG | 0.89 | 0.966 | 0.815
CGGCGG | 0.65 | 0.423 | 0.565
GAGCTA | 0.906 | 0.959 | 0.845
TTCGTG | 0.928 | 0.882 | 0.906
AGCCTG | 0.887 | 0.922 | 0.85
GGCCGT | 0.39 | 0.313 | 0.356
AGACCG | 0.696 | 0.366 | 0.486

A stretch from further up, as a working copy:
Sequence | binding signal (FEV) | binding signal (CRX) | binding signal (ELF5)
GTAGAC | 0.807 | 0.56 | 0.755
AAGTGA | 0.643 | 0.556 | 0.669
CGGACG | 0.499 | 0.276 | 0.492
CGGCGT | 0.854 | 0.642 | 0.776
AAAGTG | 0.857 | 0.881 | 0.913
CGTGCA | 0.647 | 0.51 | 0.642
TGAGAG | 0.555 | 0.538 | 0.574
AGACGT | 0.466 | 0.405 | 0.441
GGAGAT | 0.29 | 0.394 | 0.288
CGGGGT | 0.551 | 0.488 | 0.602
TGAGTA | 0.416 | 0.461 | 0.394
CTAGAG | 0.89 | 0.966 | 0.815
CGGCGG | 0.65 | 0.423 | 0.565
GAGCTA | 0.906 | 0.959 | 0.845
TTCGTG | 0.928 | 0.882 | 0.906

The results go on:

Sequence | binding signal (FEV) | binding signal (CRX) | binding signal (ELF5)
GTGATC | 0.794 | 0.872 | 0.828
TTGAGT | 0.656 | 0.719 | 0.631
CAGGGA | 0.503 | 0.52 | 0.618
GTATAG | 0.902 | 0.801 | 0.933
CCGTGC | 0.578 | 0.448 | 0.607
GTTAGT | 0.72 | 0.749 | 0.756
TATCGG | 0.836 | 1.1 | 0.797
CGTGAG | 0.121 | 0.112 | 0.116
ACAGTG | 0.485 | 0.403 | 0.469
ACGGTG | 0.504 | 0.409 | 0.508
CGCGGT | 0.885 | 0.702 | 0.863
GCCAGC | 0.788 | 0.637 | 0.654
CGAGCG | 0.919 | 0.729 | 0.838
GCTGAG | 0.624 | 0.655 | 0.587
AGCGTT | 0.883 | 0.9 | 0.916
CAAAGG | 0.811 | 0.797 | 0.833
GACCAT | 0.89 | 0.661 | 0.824
CAAGCG | 0.893 | 0.74 | 0.801
CGCAAG | 0.813 | 0.677 | 0.769
CGTGCC | 0.843 | 0.623 | 0.753
AGTCGA | 0.403 | 0.373 | 0.396

Sequence | binding signal (FEV) | binding signal (CRX) | binding signal (ELF5)
CAGGCG | 0.27 | 0.229 | 0.27
GAGGAC | 0.632 | 0.487 | 0.641
ATCGGG | 0.443 | 0.538 | 0.432
CAATCG | 0.859 | 0.882 | 0.855
AGAGTG | 0.668 | 0.528 | 0.6
GCTGTC | 0.87 | 0.747 | 0.882
AGTGAG | 0.257 | 0.214 | 0.256
GAGACG | 0.324 | 0.261 | 0.297
GGGTGT | 0.671 | 0.523 | 0.751
AGGGGC | 0.797 | 0.721 | 0.724
TGAGGT | 0.564 | 0.543 | 0.63
CGAGGC | 0.668 | 0.544 | 0.654
AGGGGT | 0.793 | 0.757 | 0.857
GGCTGA | 0.758 | 0.754 | 0.678
TACCAG | 0.817 | 0.977 | 0.838
TGAGAC | 0.555 | 0.467 | 0.497
CCAGTA | 0.677 | 0.727 | 0.632
GTGTGC | 0.883 | 0.592 | 0.829
GTCGAG | 0.414 | 0.366 | 0.438
GTGGGT | 0.439 | 0.373 | 0.445
CAGTGG | 0.477 | 0.437 | 0.477

Sequence | binding signal (FEV) | binding signal (CRX) | binding signal (ELF5)
TAGTCG | 0.455 | 0.533 | 0.476
ACGAGT | 0.684 | 0.683 | 0.617
GGGGGA | 0.581 | 0.579 | 0.619
GAGAGC | 0.363 | 0.319 | 0.334
CGCGTG | 0.652 | 0.507 | 0.675
TCAGGC | 0.689 | 0.747 | 0.711
CGTGGT | 0.561 | 0.44 | 0.586
AGAGTA | 0.752 | 0.766 | 0.777
CGTCGT | 0.88 | 0.642 | 0.857
ACTGAG | 0.751 | 0.718 | 0.656
GCAGTA | 0.904 | 0.787 | 0.847
GGGGCA | 0.671 | 0.531 | 0.662
AGTCGT | 0.386 | 0.318 | 0.402
GACCAC | 0.884 | 0.591 | 0.896
GCGGGT | 0.564 | 0.515 | 0.577
CGTGTC | 0.765 | 0.551 | 0.814
ACAGGG | 0.777 | 0.635 | 0.838
CAGAGC | 0.795 | 0.734 | 0.762
TCGGCA | 0.681 | 0.632 | 0.714
GGCCAA | 0.836 | 0.653 | 0.772
GACTAG | 0.725 | 0.824 | 0.692
